Results deposited as PubChem BioAssay AID1159578 (Peter MacCallum Cancer Centre, 2015).
The deposit covers about 18,000 reagents; shown is an unselected part. Over the whole deposit, about 1,030 (5.7%) are marked active. 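Inactive calls also include pools with fewer than 3300 nuclei, whose migration was not assessed.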 Raw values are not corrected between plates. Unmarked entries are inactive. Further read-outs or replicates are left out here.

- Assay: 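siRNA pools altering how lymphatic endothelial cells close a scratch wound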 (primary screen)
- System: human lymphatic endothelial cells
- Reagents: siRNA pool against human genes, 40 nM
- Timing: 48 h after transfection
- Read-out: 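High-content imaging of dye-stained cells in a scratch assay measures filled wound area and nuclei per well; duplicate means given as ratio to mock and robust z-score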
- Scale: migration robust z-score: higher = faster migration into the scratch; nuclei per well: higher = more cells in the well
- Hit rule: 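Pools averaging fewer than 3300 nuclei are never called; remaining pools count as changed when migration robust z lies outside -2 to 2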
- Calls: active = migration changed; inactive = no migration change, or too few cells

NPR1 (GeneID 4881): migration robust z-score = 1.29; migration class with cell-count check = migration z between -2 and 2; enough cells; nuclei per well, duplicate mean = 5382
KRT32 (GeneID 3882): migration robust z-score = 2.58 (active); migration class with cell-count check = migration z above 2; enough cells; nuclei per well, duplicate mean = 5900
PRRC2C (GeneID 23215): migration robust z-score = -0.88; migration class with cell-count check = migration z between -2 and 2; enough cells; nuclei per well, duplicate mean = 6739
SH2D3C (GeneID 10044): migration robust z-score = -0.84; migration class with cell-count check = migration z between -2 and 2; enough cells; nuclei per well, duplicate mean = 4808
CHPF2 (GeneID 54480): migration robust z-score = -1.66; migration class with cell-count check = migration z between -2 and 2; enough cells; nuclei per well, duplicate mean = 5982
GART (GeneID 2618): migration robust z-score = -1.04; migration class with cell-count check = migration z between -2 and 2; enough cells; nuclei per well, duplicate mean = 4915
TCN2 (GeneID 6948): migration robust z-score = 0.99; migration class with cell-count check = migration z between -2 and 2; enough cells; nuclei per well, duplicate mean = 6084
SFXN4 (GeneID 119559): migration robust z-score = -0.46; migration class with cell-count check = migration z between -2 and 2; enough cells; nuclei per well, duplicate mean = 6063
SAMD8 (GeneID 142891): migration robust z-score = 0.26; migration class with cell-count check = migration z between -2 and 2; enough cells; nuclei per well, duplicate mean = 5562
MEX3A (GeneID 92312): migration robust z-score = 0.13; migration class with cell-count check = migration z between -2 and 2; enough cells; nuclei per well, duplicate mean = 5914
IQSEC3 (GeneID 440073): migration robust z-score = 0.49; migration class with cell-count check = migration z between -2 and 2; enough cells; nuclei per well, duplicate mean = 5367
F2R (GeneID 2149): migration robust z-score = 1.17; migration class with cell-count check = migration z between -2 and 2; enough cells; nuclei per well, duplicate mean = 5666
GADD45GIP1 (GeneID 90480): migration robust z-score = -0.12; migration class with cell-count check = migration z between -2 and 2; enough cells; nuclei per well, duplicate mean = 6074
ZNF30 (GeneID 90075): migration robust z-score = 0.96; migration class with cell-count check = migration z between -2 and 2; enough cells; nuclei per well, duplicate mean = 6133

Single entries from the list.
Result of GADD45GIP1 (GeneID 90480) under “migration class with cell-count check”: migration z between -2 and 2; enough cells
Entry of GART (GeneID 2618) in “migration robust z-score”: -1.04
